Measured values taken from patent publication US20030235860A1, “Interactions between AR, ER, TR2, and TR4” (priority 1999, published 2003).
Results are given in words; binding and its absence hold for the method and conditions named. A result given as binding can be weak or reduced; the word gives no strength. For some assays here: Binding seen in cells or lysates may run through a third protein. For some assays here: Sequences can lack the tags named with a protein. Blank lines part the entries; values can stand above or below the binder they belong to.

How the values were obtained:
[1] = molecular target: androgen receptor (AR), full-length (human); assay: Table 4, summary of interactions tested; assay not given
[2] = molecular target: TR2 orphan receptor (TR2), full-length (human); assay: GST pull-down, GST-TR4 on glutathione-Sepharose beads, in vitro translated 35S-labeled protein
[3] = molecular target: AR-L (LBD of AR) (human); assay: GST pull-down, GST-TR4 on beads
[4] = molecular target: AR-D (DBD of AR) (human); assay: GST pull-down, GST-TR4 on beads
[5] = molecular target: AR-N (N-terminal of AR) (human); assay: GST pull-down, GST-TR4 on beads
[6] = molecular target: AR-L (LBD of AR) (human); assay: Table 4, summary of interactions tested; assay not given
[7] = molecular target: AR-D (DBD of AR) (human); assay: as above
[8] = molecular target: AR-N (N-terminal of AR) (human); assay: as above

binding [1]: binds
B1: TR4 LBD (row label of Table 4) (receptor)
chain: AASTEKIYIRKDLRSPLIATPTFVADKDGARQTGLLDPGMLVNIQQPLIREDGTVLLATDSKAETSQGALGTLANVVTSLANLSESLNNGDTSEIQPEDQSASEITRAFDTLAKALNTTDSSSSPSLADGIDTSGGGSIHVISRDQSTPIIEVEGPLLSDTHVTFKLTMPSPMPEYLNVHYICESASRLLFLSMHRARSIPAFQGLGQDCNTSLVRACWNELFTLGLAQCAQVMSLSTILAAIVNHLQNSIQEDKLSGDRIKQVMEHIWKLQEFCNSMANWDIDGYEYAYLKAIVLFSPDHPGLTSTSQIEKFQEKAQMELQDYVQKTYSEDTYRLARILVRLPALRLMSSNITEELFFTGLIGNVSIDSIIPYILKMETAEYNGQITGVSL
notes: not shown: Fusion partner: GST in the pull-down with ER, GAL4-DBD in the hybrid assays with AR

binding [2]: binds
binding [3]: binds
binding [4]: binds
binding [5]: binds
B2: GST-TR4 fusion protein (protein, not shown: a dimerising Fc or GST; small tags and cut ends)
chain: MTSPSPRIQIISTDSAVASPQRIQGSEPASGPLSVFTSLNKEKIVTDQQTGQKIQIVTAVDASGSPKQQFILTSPDGAGTGKVILASPETSSAKQLIFTTSDNLVPGRIQIVTDSASVERLLGKTDVQRPQVVEYCVVCGDKASGRHYGAVSCEGCKGFFKRSVRKNLTYSCRSSQDCIINKHHRNRCQFCRLKKCLEMGMKMESVQSERKPFDVQREKPSNCAASTEKIYIRKDLRSPLIATPTFVADKDGARQTGLLDPGMLVNIQQPLIREDGTVLLATDSKAETSQGALGTLANVVTSLANLSESLNNGDTSEIQPEDQSASEITRAFDTLAKALNTTDSSSSPSLADGIDTSGGGSIHVISRDQSTPIIEVEGPLLSDTHVTFKLTMPSPMPEYLNVHYICESASRLLFLSMHRARSIPAFQGLGQDCNTSLVRACWNELFTLGLAQCAQVMSLSTILAAIVNHLQNSIQEDKLSGDRIKQVMEHIWKLQEFCNSMANWDIDGYEYAYLKAIVLFSPDHPGLTSTSQIEKFQEKAQMELQDYVQKTYSEDTYRLARILVRLPALRLMSSNITEELFFTGLIGNVSIDSIIPYILKMETAEYNGQITGVSL

binding [6]: binds
binding [7]: binds
binding [8]: binds
B3: TR4 orphan receptor (TR4), full-length (receptor)
chain: MTSPSPRIQIISTDSAVASPQRIQGSEPASGPLSVFTSLNKEKIVTDQQTGQKIQIVTAVDASGSPKQQFILTSPDGAGTGKVILASPETSSAKQLIFTTSDNLVPGRIQIVTDSASVERLLGKTDVQRPQVVEYCVVCGDKASGRHYGAVSCEGCKGFFKRSVRKNLTYSCRSSQDCIINKHHRNRCQFCRLKKCLEMGMKMESVQSERKPFDVQREKPSNCAASTEKIYIRKDLRSPLIATPTFVADKDGARQTGLLDPGMLVNIQQPLIREDGTVLLATDSKAETSQGALGTLANVVTSLANLSESLNNGDTSEIQPEDQSASEITRAFDTLAKALNTTDSSSSPSLADGIDTSGGGSIHVISRDQSTPIIEVEGPLLSDTHVTFKLTMPSPMPEYLNVHYICESASRLLFLSMHRARSIPAFQGLGQDCNTSLVRACWNELFTLGLAQCAQVMSLSTILAAIVNHLQNSIQEDKLSGDRIKQVMEHIWKLQEFCNSMANWDIDGYEYAYLKAIVLFSPDHPGLTSTSQIEKFQEKAQMELQDYVQKTYSEDTYRLARILVRLPALRLMSSNITEELFFTGLIGNVSIDSIIPYILKMETAEYNGQITGVSL
